The test has as its target endogenous LRRC8A of HEK293 cells (human (endogenous in HEK293T)) (UniProt Q8IWT6). The test can be described thus: affinity purification with mass spectrometry; pairs of endogenous LRRC8 subunits in the channels isolated on SBP-tagged Sb1 from HEK293T (WT) or LRRC8^B,D,E-/- cells; shotgun LC-MS/MS and absolute quantification with two isotope-labelled reference peptides per subunit.

By UniProt entry, the sequences of proteins in these tests, tags left out.
UniProt Q8IWT6: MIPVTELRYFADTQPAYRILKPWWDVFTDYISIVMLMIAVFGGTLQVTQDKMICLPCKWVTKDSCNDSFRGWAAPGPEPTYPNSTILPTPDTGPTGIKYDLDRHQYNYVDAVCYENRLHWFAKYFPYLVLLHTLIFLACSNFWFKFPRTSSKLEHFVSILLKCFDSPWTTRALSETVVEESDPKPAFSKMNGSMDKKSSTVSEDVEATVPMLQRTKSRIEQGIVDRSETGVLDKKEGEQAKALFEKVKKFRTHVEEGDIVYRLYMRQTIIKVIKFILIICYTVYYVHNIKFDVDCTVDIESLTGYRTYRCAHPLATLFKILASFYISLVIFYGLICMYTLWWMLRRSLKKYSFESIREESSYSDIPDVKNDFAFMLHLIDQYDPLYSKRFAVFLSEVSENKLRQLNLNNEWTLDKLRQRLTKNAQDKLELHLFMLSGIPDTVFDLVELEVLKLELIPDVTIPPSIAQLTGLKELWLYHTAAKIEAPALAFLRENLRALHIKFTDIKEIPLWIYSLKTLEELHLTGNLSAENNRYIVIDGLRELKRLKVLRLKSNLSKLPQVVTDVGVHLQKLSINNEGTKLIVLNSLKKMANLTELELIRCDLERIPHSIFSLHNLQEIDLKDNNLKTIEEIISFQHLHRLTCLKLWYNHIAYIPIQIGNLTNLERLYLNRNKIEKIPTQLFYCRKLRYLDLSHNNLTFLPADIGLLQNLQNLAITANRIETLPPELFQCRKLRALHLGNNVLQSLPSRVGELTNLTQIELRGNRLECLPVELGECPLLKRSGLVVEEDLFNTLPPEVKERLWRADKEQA
UniProt Q6NSJ5: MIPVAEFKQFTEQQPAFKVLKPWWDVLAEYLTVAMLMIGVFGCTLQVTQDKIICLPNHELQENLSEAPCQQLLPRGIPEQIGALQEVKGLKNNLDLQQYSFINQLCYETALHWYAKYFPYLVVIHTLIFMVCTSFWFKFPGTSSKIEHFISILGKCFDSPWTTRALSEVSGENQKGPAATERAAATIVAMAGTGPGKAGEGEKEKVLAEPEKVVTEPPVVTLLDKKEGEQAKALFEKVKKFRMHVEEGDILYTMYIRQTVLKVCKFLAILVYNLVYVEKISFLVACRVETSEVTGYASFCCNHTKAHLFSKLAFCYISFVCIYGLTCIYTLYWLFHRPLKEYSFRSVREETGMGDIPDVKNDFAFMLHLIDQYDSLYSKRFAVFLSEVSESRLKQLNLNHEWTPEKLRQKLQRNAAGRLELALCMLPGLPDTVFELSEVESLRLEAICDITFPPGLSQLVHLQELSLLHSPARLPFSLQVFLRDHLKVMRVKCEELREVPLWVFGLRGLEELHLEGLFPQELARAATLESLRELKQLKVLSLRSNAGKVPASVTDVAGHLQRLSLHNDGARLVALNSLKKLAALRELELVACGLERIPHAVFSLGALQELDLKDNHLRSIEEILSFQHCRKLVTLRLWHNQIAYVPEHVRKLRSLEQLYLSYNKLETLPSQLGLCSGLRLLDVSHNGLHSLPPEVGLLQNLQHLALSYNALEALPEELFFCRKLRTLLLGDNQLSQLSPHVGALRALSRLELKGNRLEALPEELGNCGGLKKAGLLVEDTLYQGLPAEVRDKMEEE

The values that follow come from publication PMC9851909, “Structure of a volume-regulated heteromeric LRRC8A/C channel” (Nature Structural & Molecular Biology, 2022).

These are yes or no findings as the source states them, for the method shown. Binding seen in cells or lysates may run through a third protein. These calls come from enrichment with a bait or labelling near it, and not all partners need be listed.

On to “endogenous LRRC8E of HEK293 cells (from UniProt Q6NSJ5 1-796)”, for which the binding result is reported as “binds”.
